From article PMC11379886, “Insights into phosphoethanolamine cellulose synthesis and secretion across the Gram-negative cell envelope” (Nature Communications, 2024) come the findings set out here.

The chains behind the UniProt entries cited, without tags or fusion partners. Where a name states a change or a piece, a line headed by the entry shows the natural chain unless it says otherwise.
UniProt P37653: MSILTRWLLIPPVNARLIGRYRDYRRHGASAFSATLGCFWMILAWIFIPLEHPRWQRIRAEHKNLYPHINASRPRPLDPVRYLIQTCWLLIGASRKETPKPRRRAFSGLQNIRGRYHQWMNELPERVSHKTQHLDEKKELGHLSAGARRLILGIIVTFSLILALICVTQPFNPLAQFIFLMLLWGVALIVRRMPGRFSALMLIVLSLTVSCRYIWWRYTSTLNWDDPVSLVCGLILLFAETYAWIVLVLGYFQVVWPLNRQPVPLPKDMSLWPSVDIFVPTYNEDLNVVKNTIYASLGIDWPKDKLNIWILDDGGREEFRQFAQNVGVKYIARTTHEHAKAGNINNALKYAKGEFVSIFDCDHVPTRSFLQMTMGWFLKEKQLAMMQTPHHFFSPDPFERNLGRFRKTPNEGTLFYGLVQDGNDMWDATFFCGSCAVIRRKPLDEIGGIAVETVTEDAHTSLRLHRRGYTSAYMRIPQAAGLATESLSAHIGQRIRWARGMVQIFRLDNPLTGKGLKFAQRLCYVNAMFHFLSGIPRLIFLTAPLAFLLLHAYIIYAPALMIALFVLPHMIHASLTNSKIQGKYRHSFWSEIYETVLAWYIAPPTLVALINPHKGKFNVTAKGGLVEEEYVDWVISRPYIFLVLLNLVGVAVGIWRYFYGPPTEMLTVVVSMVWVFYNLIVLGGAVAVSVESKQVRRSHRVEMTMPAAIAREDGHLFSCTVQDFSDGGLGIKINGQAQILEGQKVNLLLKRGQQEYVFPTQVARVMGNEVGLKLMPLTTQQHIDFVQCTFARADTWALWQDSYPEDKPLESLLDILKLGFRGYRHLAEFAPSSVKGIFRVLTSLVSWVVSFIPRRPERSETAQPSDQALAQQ

For the experiment, the target named is Escherichia coli cellulose synthase BcsA (Escherichia coli) (UniProt P37653). Put plainly: cryo-EM structure; reprocessing of the previously published cryo-EM data (EMD-23267) of the co-expressed, co-purified Ec inner membrane-associated Bcs complex, focused on BcsA-BcsG; ~5.7 Å; AlphaFold2 model docked as rigid bodies; both purified.

Results are given in words; binding and its absence hold for the method and conditions named. Binding seen in cells or lysates may run through a third protein. Binding calls can cover weak binding; strength is not graded here. Tags and fused reporters may be left off the sequences shown.

B1: Escherichia coli pEtN transferase BcsG, FLAG-tagged (enzyme, UniProt P37659 1-559, looked up)
chain: MTQFTQNTAMPSSLWQYWRGLSGWNFYFLVKFGLLWAGYLNFHPLLNLVFAAFLLMPLPRYSLHRLRHWIALPIGFALFWHDTWLPGPESIMSQGSQVAGFSTDYLIDLVTRFINWQMIGAIFVLLVAWLFLSQWIRITVFVVAILLWLNVLTLAGPSFSLWPAGQPTTTVTTTGGNAAATVAATGGAPVVGDMPAQTAPPTTANLNAWLNNFYNAEAKRKSTFPSSLPADAQPFELLVINICSLSWSDIEAAGLMSHPLWSHFDIEFKNFNSATSYSGPAAIRLLRASCGQTSHTNLYQPANNDCYLFDNLSKLGFTQHLMMGHNGQFGGFLKEVRENGGMQSELMDQTNLPVILLGFDGSPVYDDTAVLNRWLDVTEKDKNSRSATFYNTLPLHDGNHYPGVSKTADYKARAQKFFDELDAFFTELEKSGRKVMVVVVPEHGGALKGDRMQVSGLRDIPSPSITDVPVGVKFFGMKAPHQGAPIVIEQPSSFLAISDLVVRVLDGKIFTEDNVDWKKLTSGLPQTAPVSENSNAVVIQYQDKPYVRLNGGDWVPYPQ
notes: present as the full-length enzyme in the analysed sample; End of the FLAG tag read from the plasmid's name (G-FLAG); also called Ec BcsG; source: E. coli C43 (DE3), co-expressed with the other Bcs components or with the BcsA chimera, Rs BcsB and BcsF; co-purified; not shown: FLAG, C-terminal, kept
As to B1, the binding result is listed as “binds”.
